The values that follow come from PMC5430726.

Sequences of proteins named here, by UniProt entry; tags and fusion partners are left off. Residues count along the entry.
UniProt Q60631, residues 155-217: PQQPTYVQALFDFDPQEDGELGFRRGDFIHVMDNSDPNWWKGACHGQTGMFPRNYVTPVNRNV

These are yes or no findings as the source states them, for the method shown.

This assay addresses Grb2 C-terminal SH3 domain (SH3C), residues 155-217 (mouse) (UniProt Q60631). Briefly: cross-linking + SEC; glutaraldehyde crosslinking and size exclusion chromatography of the purified domains; both purified. For orientation: SEC sorts molecules by how far they enter the pores of the column.

On to “Grb2 C-terminal SH3 domain (SH3C), residues 155-217 (from UniProt Q60631 155-217) (domain or fragment)”, for which the binding entry is reported as “no binding”.
